Results on 2 substances are retold here after PMC9586991.

Protein sequences, listed by entry. Tags and fused reporters are not part of them.
UniProt O08788: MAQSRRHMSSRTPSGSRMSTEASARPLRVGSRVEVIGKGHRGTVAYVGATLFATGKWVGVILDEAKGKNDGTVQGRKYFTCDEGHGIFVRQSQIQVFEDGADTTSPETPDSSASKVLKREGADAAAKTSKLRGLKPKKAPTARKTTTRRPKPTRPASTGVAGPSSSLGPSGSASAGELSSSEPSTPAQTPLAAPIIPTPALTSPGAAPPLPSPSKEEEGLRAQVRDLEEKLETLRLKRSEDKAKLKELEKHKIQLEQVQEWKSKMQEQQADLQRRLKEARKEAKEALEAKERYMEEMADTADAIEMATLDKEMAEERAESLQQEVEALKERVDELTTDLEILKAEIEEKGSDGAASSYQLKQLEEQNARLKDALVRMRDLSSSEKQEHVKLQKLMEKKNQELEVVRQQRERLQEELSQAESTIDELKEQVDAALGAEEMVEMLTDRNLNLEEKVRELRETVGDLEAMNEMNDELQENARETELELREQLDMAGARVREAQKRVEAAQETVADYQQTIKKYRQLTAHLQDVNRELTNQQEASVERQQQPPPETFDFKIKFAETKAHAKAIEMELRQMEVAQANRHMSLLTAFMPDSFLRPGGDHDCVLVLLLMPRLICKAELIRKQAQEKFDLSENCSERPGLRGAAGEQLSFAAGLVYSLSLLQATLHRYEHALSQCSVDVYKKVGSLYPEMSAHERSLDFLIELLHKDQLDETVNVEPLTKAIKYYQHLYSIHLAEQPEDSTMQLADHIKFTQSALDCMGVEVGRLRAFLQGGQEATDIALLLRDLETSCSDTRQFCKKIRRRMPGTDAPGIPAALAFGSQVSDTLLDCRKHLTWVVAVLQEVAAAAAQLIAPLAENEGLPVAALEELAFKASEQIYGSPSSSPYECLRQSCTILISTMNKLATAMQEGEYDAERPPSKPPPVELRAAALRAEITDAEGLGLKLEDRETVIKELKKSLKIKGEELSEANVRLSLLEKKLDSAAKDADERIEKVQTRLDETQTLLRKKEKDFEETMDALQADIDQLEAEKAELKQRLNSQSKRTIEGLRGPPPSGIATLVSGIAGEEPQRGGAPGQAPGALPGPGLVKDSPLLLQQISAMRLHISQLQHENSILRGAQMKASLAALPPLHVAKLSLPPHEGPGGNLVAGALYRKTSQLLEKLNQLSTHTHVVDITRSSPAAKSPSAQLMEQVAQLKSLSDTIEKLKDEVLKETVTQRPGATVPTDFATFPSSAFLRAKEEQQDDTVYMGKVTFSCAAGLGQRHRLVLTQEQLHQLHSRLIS

For assay [1], the target named is T1, FLAG-tagged Rab44 (mouse) (UniProt Q8CB87).
T1 sequence: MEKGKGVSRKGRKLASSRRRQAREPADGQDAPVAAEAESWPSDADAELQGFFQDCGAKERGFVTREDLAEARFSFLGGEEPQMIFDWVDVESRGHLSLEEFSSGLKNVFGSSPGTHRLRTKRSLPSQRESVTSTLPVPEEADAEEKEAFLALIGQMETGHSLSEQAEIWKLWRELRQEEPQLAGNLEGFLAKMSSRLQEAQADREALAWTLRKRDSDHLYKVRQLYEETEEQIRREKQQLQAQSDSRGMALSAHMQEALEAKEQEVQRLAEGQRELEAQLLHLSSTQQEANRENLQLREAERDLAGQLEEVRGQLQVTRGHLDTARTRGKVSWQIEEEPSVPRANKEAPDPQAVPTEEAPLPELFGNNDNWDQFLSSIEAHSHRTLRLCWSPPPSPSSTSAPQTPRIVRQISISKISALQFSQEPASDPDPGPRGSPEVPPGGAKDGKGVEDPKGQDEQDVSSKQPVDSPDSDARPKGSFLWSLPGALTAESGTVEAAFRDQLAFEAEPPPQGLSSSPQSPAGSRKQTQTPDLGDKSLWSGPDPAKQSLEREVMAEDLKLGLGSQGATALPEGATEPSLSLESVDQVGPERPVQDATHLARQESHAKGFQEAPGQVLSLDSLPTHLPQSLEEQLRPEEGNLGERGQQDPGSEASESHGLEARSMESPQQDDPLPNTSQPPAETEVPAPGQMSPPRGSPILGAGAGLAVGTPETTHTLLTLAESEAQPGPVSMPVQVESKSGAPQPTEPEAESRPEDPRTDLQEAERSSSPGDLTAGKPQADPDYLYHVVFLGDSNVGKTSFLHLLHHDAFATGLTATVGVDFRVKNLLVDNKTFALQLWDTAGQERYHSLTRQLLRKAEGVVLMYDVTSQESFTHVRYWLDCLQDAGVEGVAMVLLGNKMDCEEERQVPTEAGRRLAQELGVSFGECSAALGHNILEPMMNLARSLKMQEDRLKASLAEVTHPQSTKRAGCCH
The assay can be described thus: co-IP; COS-7 cell lysates with FLAG-Rab44 or FLAG-Rab44ΔN and HA-p150Glued, 2 mM EGTA or 10 μM free Ca2+ added to the lysates; anti-FLAG agarose beads 16 h at 4 °C; immunoblot.

The target in assay [2] is T1, FLAG-tagged Rab44 (mouse). The assay can be described thus: co-IP; COS-7 cells cotransfected for 2 days with pEF-FLAG-Rab44 (or truncated mutants, or control GST) and pEF-HA-p150Glued; lysates (50 mM Hepes-KOH pH 7.2, 150 mM NaCl, 1 mM MgCl2, 5% glycerol, 0.5% NP-40) with anti-FLAG agarose beads 16 h at 4 °C; immunoblot. A general note: A western blot detects proteins with antibodies after separation by electrophoresis.

The target in assay [3] is T2, FLAG-Rab44 expressed in B16-F1 melanoma cells (mouse) (UniProt Q8CB87).
T2 sequence: T1 sequence
The assay can be described thus: co-IP; B16-F1 cells transfected for 2 days with pEF-FLAG-Rab44; lysates with anti-FLAG agarose beads 16 h at 4 °C; immunoblot for the endogenous proteins.

Results are given in words; binding and its absence hold for the method and conditions named. In cells and extracts the contact can be indirect. Some entries that bind do so weakly or less than the wild type. Sequences can lack the tags named with a protein.

As to “hemagglutinin (HA)-tagged p150^Glued (from UniProt O08788 1-1281)”, the binding result in assay [1] and in assay [2] was “binds” in each case.

On to “endogenous p150^Glued (from UniProt O08788 1-1281)”, for which the binding entry in assay [3] was “binds”.
